PubChem BioAssay AID1159584 – Peter MacCallum Cancer Centre – 2016

- Assay: 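Genes that CDH1-null MCF10A cells selectively depend on to survive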 (primary screen)
- Cell system: human MCF10A breast epithelial cells, parental and CDH1-null
- Reagents: siRNA against human genes
- Read-out: 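ATP luminescence (CellTiter-Glo) viability per line relative to mean mock wells over all plates, and the ratio of CDH1-null to parental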
- Reading the numbers: CDH1-null / parental viability ratio: higher = CDH1-null cells survive relatively better than parental; CDH1-null viability vs mock: higher = more viable CDH1-null cells; parental viability vs mock: higher = more viable parental cells
In all, the deposit lists about 18,000 reagents; this is a random part of them. The record does not give: the amount of reagent, the time to read-out.

target gene	CDH1-null / parental viability ratio	CDH1-null viability vs mock (fraction of mock)	parental viability vs mock (fraction of mock)
CASP14	1.11	0.82	0.74
CRX	1.21	0.93	0.77
ISLR	1.15	0.3	0.26
ZNF317	0.87	0.45	0.52
RGPD5	1.02	0.54	0.53
OR1I1	0.84	0.43	0.51
BRD8	0.78	0.62	0.79
UCN2	1.13	0.34	0.3
FREM1	0.82	0.62	0.76
LTB	1.22	1.17	0.96

Next part; the last 2 above are carried over.
target gene	CDH1-null / parental viability ratio	CDH1-null viability vs mock (fraction of mock)	parental viability vs mock (fraction of mock)
FREM1	0.82	0.62	0.76
LTB	1.22	1.17	0.96
RDH13	0.79	0.53	0.67
RSF1	0.78	0.73	0.93
NEGR1	0.86	0.7	0.81
METAP2	1.4	0.59	0.42
ALPK1	0.8	0.64	0.8
ELL	1.12	0.94	0.84
HMGB1P1	0.84	0.67	0.8
BORA	1.01	0.76	0.75
CPE	1.01	0.94	0.93
SPAG1	1.56	0.28	0.18
FCN1	0.75	0.58	0.77
RTTN	1.09	0.96	0.88
VAPB	0.75	0.88	1.17
GATA4	1.35	0.96	0.71
FAABTP	1.13	0.79	0.7
VPS45	1.2	0.48	0.4
PDLIM5	1.19	0.8	0.67
VANGL2	0.86	0.62	0.72
